Values from PubChem BioAssay AID1508597 (Cure First, 2020).

- Test: 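Genes whose silencing sensitises or protects ovarian cancer cells against rucaparib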 (primary screen)
- System: human ovarian carcinoma lines grown from tumours: OCI-P5x (papillary serous) and OCI-C5x (clear cell)
- Knock-down reagent: siRNA pool against human genes, 1.25 pmol siRNA per well
- Duration: 72 h or 96 h, depending on the cell culture
- Challenge: rucaparib 20 µM (about IC30) or vehicle, present until read-out
- Rucaparib or vehicle: Rucaparib
- Cell line: OCI-P5x (serous)
- Measurement: 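ATP luminescence measured at 72 or 96 h according to the culture, then normalised and expressed as percent viability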
- Direction: viability, normalised: higher = more viable cells remaining
- Hit rule: 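Active when normalised viability falls below 80 percent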
- Calls: active = viability under 80%; inactive = viability 80% or more
Shown is a random part of the about 2,100 reagents, in one setting of the screen. 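Calls flag viability under 80% in either arm, not effects specific to rucaparib; the reference for percent is not stated.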 A number with no mark means an inactive call. Some reagents were tested in more than one well and are listed for each. Not stated in the record: the 100% reference.

MAPK7 (mitogen-activated protein kinase 7), technical replicate 1 showed viability, normalised (%) = 118.
MAPK7 (mitogen-activated protein kinase 7), technical replicate 2 scored viability, normalised (%) = 111.
For MAPK7 (mitogen-activated protein kinase 7), technical replicate 3 the deposit lists viability, normalised (%) = 97.1.
For H1-9P (H1.9 linker histone, pseudogene), technical replicate 1, the entry reads viability, normalised (%) = 38.9 (active).
H1-9P (H1.9 linker histone, pseudogene), technical replicate 2 gave viability, normalised (%) = 35.3 (active).
H1-9P (H1.9 linker histone, pseudogene), technical replicate 3 gave viability, normalised (%) = 39.9 (active).
BAZ2B (bromodomain adjacent to zinc finger domain 2B), technical replicate 1 gave viability, normalised (%) = 70 (active).
For BAZ2B (bromodomain adjacent to zinc finger domain 2B), technical replicate 2, the values are viability, normalised (%) = 66.6 (active).
With BAZ2B (bromodomain adjacent to zinc finger domain 2B), technical replicate 3, the values are viability, normalised (%) = 63.1 (active).
For ATF7IP (activating transcription factor 7 interacting protein), technical replicate 1, the values are viability, normalised (%) = 78.6 (active).
For ATF7IP (activating transcription factor 7 interacting protein), technical replicate 2, the entry reads viability, normalised (%) = 74.7 (active).
ATF7IP (activating transcription factor 7 interacting protein), technical replicate 3 gave viability, normalised (%) = 77.7 (active).
With AAK1 (AP2 associated kinase 1), technical replicate 1, the entry reads viability, normalised (%) = 75.3 (active).
AAK1 (AP2 associated kinase 1), technical replicate 2 showed viability, normalised (%) = 68.6 (active).
AAK1 (AP2 associated kinase 1), technical replicate 3 gave viability, normalised (%) = 57.9 (active).
With DGKG (diacylglycerol kinase gamma), technical replicate 1, the entry reads viability, normalised (%) = 75 (active).
For DGKG (diacylglycerol kinase gamma), technical replicate 2, the values are viability, normalised (%) = 86.8.
DGKG (diacylglycerol kinase gamma), technical replicate 3 showed viability, normalised (%) = 79.7 (active).
With PIK3C2G, technical replicate 1, the entry reads viability, normalised (%) = 101.
PIK3C2G, technical replicate 2 scored viability, normalised (%) = 94.5.
With PIK3C2G, technical replicate 3 the deposit lists viability, normalised (%) = 106.
For DIDO1 (death inducer-obliterator 1), technical replicate 1, the values are viability, normalised (%) = 57.8 (active).
DIDO1 (death inducer-obliterator 1), technical replicate 2 scored viability, normalised (%) = 55.5 (active).
DIDO1 (death inducer-obliterator 1), technical replicate 3 gave viability, normalised (%) = 56.9 (active).
With SUPT3H (SPT3 homolog, SAGA and STAGA complex component), technical replicate 1, the entry reads viability, normalised (%) = 57.1 (active).
SUPT3H (SPT3 homolog, SAGA and STAGA complex component), technical replicate 2 scored viability, normalised (%) = 48 (active).
With SUPT3H (SPT3 homolog, SAGA and STAGA complex component), technical replicate 3 the deposit lists viability, normalised (%) = 60.8 (active).
LIMK2 (LIM domain kinase 2), technical replicate 1 gave viability, normalised (%) = 96.3.
With LIMK2 (LIM domain kinase 2), technical replicate 1, the values are viability, normalised (%) = 84.2.
LIMK2 (LIM domain kinase 2), technical replicate 2 scored viability, normalised (%) = 83.7.
LIMK2 (LIM domain kinase 2), technical replicate 2 showed viability, normalised (%) = 66.7 (active).
LIMK2 (LIM domain kinase 2), technical replicate 3 showed viability, normalised (%) = 102.
LIMK2 (LIM domain kinase 2), technical replicate 3 gave viability, normalised (%) = 71.9 (active).

A run of entries taken from the entries so far:
LIMK2 (LIM domain kinase 2), technical replicate 1 | viability, normalised (%): 96.3
LIMK2 (LIM domain kinase 2), technical replicate 1 | viability, normalised (%): 84.2
LIMK2 (LIM domain kinase 2), technical replicate 2 | viability, normalised (%): 83.7
LIMK2 (LIM domain kinase 2), technical replicate 2 | viability, normalised (%): 66.7 (active)
